{"source": "PubChem BioAssay AID504648", "about": "(National Center for Advancing Translational Sciences (NCATS), 2011)", "note": "About 610 (0.16%) of roughly 390,000 compounds were called active. Inconclusive means that the source gave no clear call. Such entries were picked first, then a sample of the others. The call rests on the fitted dose curve; in most records, active means well fitted inhibition curve with a large enough effect; inconclusive means small, poorly fitted or top-dose-only effect, or effect the other way, or another doubt; inactive means no such curve, though single readings can be large or run the other way. A potency beside an inconclusive call is a rough fit, not a confirmed value. Potency means the concentration at half of the fitted maximal effect."}
{"experiment": "Nrf2 qHTS screen for inhibitors: counterscreen for cytotoxicity", "settings": "A549 ARE-Fluc cells, CellTiter-Fluor viability, 18-24 h; series mostly up to 46 µM", "in_short": "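A549 ARE_Fluc cells in 5% FBS OPTI-MEM were exposed to compounds in concentration-response for 18-24 h at 37 deg C. Viability was read by CellTiter-Fluor fluorescence (Ex 405/Em 525) after 30 min, before the luciferase read.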"}
{"smiles": "CCCCCCN1C=CC(=C/C=C(\\C#N)C(=O)OCC)C=C1", "Potency": "inconclusive: 14.6 µM [falling, partial curve, poor fit]"}
{"smiles": "COc1cc(-c2nnc(SCC(=O)N3c4ccccc4Sc4ccccc43)o2)cc(OC)c1OC", "Potency": "inactive"}
{"smiles": "Cc1c(O)nc(SC2CC(=O)N(c3ccccc3)C2=O)[nH]c1=O", "note": "(stereo not drawn)", "Potency": "inactive"}
{"smiles": "CCS(=O)(=O)c1ncc(Cl)c(C(=O)N(Cc2ccccc2)c2ccc(OC)cc2)n1", "Potency": "inconclusive: 18.4 µM [falling, single point]"}
{"smiles": "CN(CC(=O)Nc1ccc(Cl)c(C(F)(F)F)c1)CC(=O)NC1CCCCC1", "Potency": "inconclusive: 23.1 µM [falling, single point]"}
{"smiles": "COc1ccc(C(c2c(C)[nH]n(C(N)=S)c2=O)C(C#N)C#N)cc1", "note": "(stereo not drawn)", "Potency": "inactive"}
{"smiles": "NC(=O)c1cc(Br)cc2c3c([nH]c12)CCCC3", "Potency": "inconclusive: 32.6 µM [falling, single point]"}
{"smiles": "COc1ccc(-c2[nH]c(-c3ccc4c(c3)OCO4)nc2-c2ccccc2)cc1", "Potency": "inconclusive: 29.1 µM [falling, single point]"}
{"smiles": "Oc1ccc(N=Nc2ccc3c(c2)OCCO3)c2ncccc12", "Potency": "inconclusive: 23.1 µM [falling, single point]"}
{"smiles": "FC(F)(F)c1nnc2c(Sc3ccccc3)nc3ccc(Cl)cc3n12", "Potency": "inconclusive: 1.3 µM [falling, full curve, poor fit]"}
{"smiles": "COc1ccc(CN2CCN(C(=O)c3ccc(S(=O)(=O)NCc4ccco4)cc3)CC2)cc1F", "Potency": "inactive"}
{"smiles": "COc1ccc(N2CCN(S(=O)(=O)CCNC(=O)/C=C/c3ccc4c(c3)OCO4)CC2)cc1", "Potency": "inconclusive: 32.6 µM [falling, partial curve, poor fit]"}
{"smiles": "CC[C@]12c3[nH]c4cc(-c5ccco5)ccc4c3CCN1C(=O)[C@@H](CC(=O)NCc1cccc(C(F)(F)F)c1)C[C@@H]2C(=O)N1CCN(C(=O)C2CC2)CC1", "Potency": "inconclusive: 18.4 µM [falling, partial curve, poor fit]"}
{"smiles": "O=C(O)c1cccc(Nc2ccc([N+](=O)[O-])c3nonc23)c1", "Potency": "inconclusive: 23.1 µM [falling, partial curve]"}
{"smiles": "COc1cc(OC)c2c(c1C(CCN1CCOCC1)c1ccc(N(C)C)cc1)OC(=O)CC2c1ccc(N(C)C)cc1", "note": "(stereo not drawn)", "Potency": "inconclusive: 20.6 µM [falling, partial curve, poor fit]"}
{"smiles": "CCOc1ccc(NC(=O)CN2CCSc3ccc(S(=O)(=O)N4CCCC4)cc32)cc1", "Potency": "inconclusive: 29.1 µM [falling, partial curve, poor fit]"}
{"smiles": "COc1ccc(O)c(CN2CCN(C/C=C/c3ccccc3)CC2)c1", "Potency": "inconclusive: 20.6 µM [falling, single point]"}
{"smiles": "COc1cccc(Cn2c(NCc3ccco3)nc3c2c(=O)n(C)c(=O)n3C)c1", "Potency": "inconclusive: 29.1 µM [falling, single point]"}
{"smiles": "CCCOc1ccc(C2NC(=S)NC(C)=C2C(=O)c2ccccc2)cc1OC", "note": "(stereo not drawn)", "Potency": "inconclusive: 20.6 µM [falling, single point]"}
{"smiles": "Cc1cccc(/C=C2/S/C(=N/N=C3\\CC4CCC3(C)C4(C)C)NC2=O)c1", "note": "(stereo not drawn)", "Potency": "inconclusive: 29.1 µM [falling, single point]"}
{"smiles": "O=C(CSc1nc2ccccc2nc1N1CCCC1)Nc1ccc(Cl)cc1", "Potency": "inactive"}
{"smiles": "CCOC(=O)c1c(NC(=O)CSc2nnc(-c3ccccc3C)n2C)sc(C(C)=O)c1C", "Potency": "inconclusive: 11.6 µM [falling, partial curve, poor fit]"}
{"smiles": "COC(=O)CCSc1cc(NCCOC(C)=O)c([N+](=O)[O-])c2nonc12", "Potency": "inconclusive: 29.1 µM [falling, partial curve, poor fit]"}
{"smiles": "O=C(c1ccc(Cn2c(=S)[nH]c3ccccc3c2=O)cc1)N1CCN(c2ccccn2)CC1", "Potency": "inactive"}
{"smiles": "Cc1ccccc1Cn1c(SCc2ccc(C(=O)NCCc3ccccc3)cc2)nc2ccncc21", "Potency": "inconclusive: 32.6 µM [falling, partial curve, poor fit]"}
{"smiles": "COc1ccc(NC(=O)C2CC3C=CC2C3)c([N+](=O)[O-])c1", "note": "(stereo not drawn)", "Potency": "inconclusive: 23.1 µM [falling, partial curve, poor fit]"}
{"smiles": "COc1ccc(C2(c3ccc(OC)cc3)NC(=O)N(CC(=O)NCC(F)(F)F)C2=O)cc1", "Potency": "inactive"}
{"smiles": "Cc1cccc(NC(=S)N/N=C/c2cccc(O)c2)c1C", "Potency": "inactive"}
{"smiles": "COc1ccc(N2CCN(S(=O)(=O)CCNC(=O)c3c(F)cccc3Cl)CC2)cc1", "Potency": "inactive"}
{"smiles": "CC(=O)Nc1cc(C(=O)Nc2ccc3c(c2)N(C)C(=O)c2ccccc2S3)ccc1C", "Potency": "inconclusive: 7.31 µM [falling, partial curve, poor fit]"}
{"smiles": "CCOc1cc(C2NN=C(c3ccccc3)S2)ccc1OCc1ccc(F)cc1", "note": "(stereo not drawn)", "Potency": "inactive"}
{"smiles": "CCOc1ccc(-c2onc(C(F)(F)F)c2-c2cscn2)c(O)c1", "Potency": "inconclusive: 18.4 µM [falling, single point]"}
{"smiles": "CSc1nc(SCC(=O)NC(c2ccccc2)c2ccccc2)c2c3c(sc2n1)CN(C)CC3", "Potency": "inconclusive: 5.17 µM [falling, single point]"}
{"smiles": "CCCC(=O)NC(=S)Nc1ccc(NC(=O)C(C)C)c(OC)c1", "Potency": "inconclusive: 25.9 µM [activator, single point]"}
{"smiles": "Cc1ccc(-c2nn(-c3ccccc3)cc2/C=N/NC(=O)CSc2nnc(C)n2-c2ccccc2)cc1", "Potency": "inconclusive: 29.1 µM [falling, single point]"}
{"smiles": "COc1ccccc1-n1c(=O)oc2ccc(Cl)cc2c1=O", "Potency": "inconclusive: 20.6 µM [falling, single point]"}
{"smiles": "O=C(COc1ccccc1)NCc1ccc(-n2cccc2)cc1", "Potency": "inactive"}
{"smiles": "CCOc1ccccc1-c1cc(-c2ccccc2)nc2c1c(=O)n(C)c(=O)n2C", "Potency": "inconclusive: 20.6 µM [activator, partial curve, poor fit]"}
{"smiles": "COc1ccc(CC(=O)Nc2cccc(-c3nnc(-c4ccco4)o3)c2)cc1", "Potency": "inconclusive: 14.6 µM [falling, partial curve, poor fit]"}
{"smiles": "C=CCC[C@H](Cc1ccc(F)cc1)C(=O)OC[C@@H](Cc1c[nH]c2ccccc12)NC(=O)[C@@H](CC=C)CC(=O)N[C@@H](CO)Cc1ccccc1", "Potency": "inconclusive: 16.4 µM [falling, partial curve]"}
{"smiles": "CC1CCc2c(sc(NC(=O)c3ccco3)c2C(=O)O)C1", "note": "(stereo not drawn)", "Potency": "inconclusive: 8.2 µM [falling, partial curve, poor fit]"}
{"smiles": "COc1cc2c3c(c1)/C(=C1/SC(NC(C)=O)=NC1=O)C(=O)N3C(C)(C)C=C2C", "Potency": "inconclusive: 5.17 µM [falling, partial curve, poor fit]"}
{"smiles": "O=C(Nc1sc2c(c1C(=O)O)CCC2)c1ccccc1", "Potency": "inconclusive: 20.6 µM [falling, single point]"}
{"smiles": "CCc1ccc(OC)c(S(=O)(=O)NCc2cccs2)c1", "Potency": "inconclusive: 4.11 µM [activator, partial curve, poor fit]"}
{"smiles": "CC1CN(c2ncnc3c2c(-c2ccccc2)cn3-c2ccc(F)cc2)CC(C)O1", "note": "(stereo not drawn)", "Potency": "inconclusive: 25.9 µM [falling, single point]"}
{"smiles": "Cc1cc(C)cc(N2C(=O)CC(Sc3nnnn3-c3ccccc3)C2=O)c1", "note": "(stereo not drawn)", "Potency": "inconclusive: 16.4 µM [falling, single point]"}
{"smiles": "CCC(=O)NCCc1nc2cc(NC(=O)COc3ccccc3)ccc2n1C", "Potency": "inactive"}
{"smiles": "Cc1cccc2cc(CN(CCCN(C)C)C(=S)NCCc3ccccc3)c(=O)[nH]c12", "Potency": "inconclusive: 32.6 µM [falling, partial curve, poor fit]"}
{"smiles": "Cn1c2c(c3cnc4cc(Cl)ccc4c31)CNCC2", "Potency": "inactive"}
{"smiles": "COc1cccc(NC(=O)c2cc(-c3cccnc3)nc3c(Cl)cccc23)c1", "Potency": "inconclusive: 1.46 µM [falling, partial curve]"}
{"smiles": "CCN(CC)CC(O)CNc1ccnc2c(Cl)ccc(Cl)c12", "note": "(stereo not drawn)", "Potency": "inconclusive: 23.1 µM [falling, partial curve, poor fit]"}
{"smiles": "c1coc(-c2nc3ccccn3c2Nc2ccc3c(c2)OCCO3)c1", "Potency": "inactive"}
{"smiles": "C=CC[C@@H](CC(=O)N(CCO)Cc1ccccc1)C(=O)NC[C@@H](OC(=O)[C@@H](CC=C)CC(=O)OC(C)(C)C)c1ccccc1", "Potency": "inactive"}
{"smiles": "COc1ccccc1NS(=O)(=O)c1cc(C(=O)NC2CCN(Cc3ccccc3)CC2)ccc1C", "Potency": "inconclusive: 10.3 µM [falling, partial curve, poor fit]"}
{"smiles": "Cc1ccc(Cn2c(SCc3ccc(C(=O)NCCc4ccccc4)cc3)nc3ccncc32)cc1", "Potency": "inactive"}
{"smiles": "CC(C)c1nnc(SCC(=O)NC2CCCC2)n1C", "Potency": "inconclusive: 9.2 µM [falling, partial curve, poor fit]"}
{"smiles": "O=C(N/N=C/C(Br)=C/c1ccccc1)c1cc(-c2ccco2)[nH]n1", "Potency": "inconclusive: 18.4 µM [activator, partial curve, poor fit]"}
{"smiles": "CCOC(=O)c1cc(C(=O)OCC)c2ccccn2c1=O", "Potency": "inconclusive: 18.4 µM [activator, single point]"}
{"smiles": "CCOC(=O)c1[nH]c2ccccc2c1NC(=O)c1ccc(Br)o1", "Potency": "inconclusive: 32.6 µM [falling, partial curve, poor fit]"}
{"smiles": "COc1ccc(C/C(C)=N/NC(=S)Nc2ccc(C(C)C)cc2)cc1", "Potency": "inactive"}
{"smiles": "COc1cccc(N2CCN(C(=O)CN3C(=O)NC(C)(c4ccc5ccccc5c4)C3=O)CC2)c1", "note": "(stereo not drawn)", "Potency": "inconclusive: 23.1 µM [falling, partial curve, poor fit]"}
{"smiles": "Cc1cc(C)c(NC(=O)COC(=O)c2cc([N+](=O)[O-])ccc2N2CCOCC2)c(C)c1", "Potency": "inactive"}
{"smiles": "CCc1ccc(NC(=O)CSC2=Nc3ccccc3C3=NC(CC(=O)NCc4ccc5c(c4)OCO5)C(=O)N23)cc1", "note": "(stereo not drawn)", "Potency": "inactive"}
